Measurements reported in PubChem BioAssay AID504784 (Drosophila RNAi Screening Center, 2011)
Purpose: 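Genome-wide knock-down for genes giving too much or too little stored lipid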 (primary screen). Cell system: Drosophila Kc167 embryonic cells. Reagents: long dsRNA against Drosophila genes, about 250 ng dsRNA per well. Time to read-out: 4 days. Conditions: cells fed 400 µM oleic acid bound to BSA. Measurement: 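Microscope images give a droplet-to-nucleus area ratio, taken as log and converted to a screen-wide B-score; higher values mean greater lipid storage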. Scale: droplet/nuclear area B-score: higher = more stored lipid (overstorage).
The deposit covers about 17,000 reagents; shown is an unselected part of those that have a named target and a result. 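Each column is one replicate's B-score; the combined score over replicates was not deposited, so single values may mislead.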 Names joined by + are all predicted targets of the reagent. No sequences are given here.

droplet/nuclear area B-score, replicate 1 | droplet/nuclear area B-score, replicate 2 | droplet/nuclear area B-score, replicate 3 | gene knocked down | dsRNA
0.918 | 1.85 | – | CG15048 (retired record) (GeneID 32842) | DRSC19624
-0.535 | -0.407 | – | CG31454 (GeneID 318744) | DRSC14365
0.656 | 0.66 | – | CG31454 (GeneID 318744) | DRSC22801
1.04 | -0.312 | – | Or98P (GeneID 3772262) | DRSC22948
-0.00298 | 1.1 | -0.36 | alpha-PheRS (GeneID 31740) | DRSC18224
0.721 | -0.72 | – | CG4678 (GeneID 32652) | DRSC19911
1.94 | 0.0156 | – | CG4678 (GeneID 32652) | DRSC19912
0.158 | -0.905 | – | Coq2 (GeneID 40988) | DRSC16516
0.771 | -1.5 | – | Coq2 (GeneID 40988) | DRSC21366
-0.118 | -0.0464 | – | scyl (GeneID 39270) | DRSC11392
0.00692 | -0.968 | – | CG7408 (GeneID 39991) | DRSC10841
1.06 | 0.262 | – | mRpL27 (GeneID 318825) | DRSC22568
0.0017 | -2.24 | – | Pomp (GeneID 35342) | DRSC03201
-0.553 | 0.148 | – | Pfk (GeneID 36060) | DRSC07506
-1.09 | -0.526 | – | obst-F (GeneID 40209) | DRSC10805
0.832 | -0.0368 | – | Ir25a (GeneID 33683) | DRSC00462
-0.0128 | -0.568 | – | CG11125 (GeneID 35669) | DRSC06042
1.59 | -3.13 | – | Hmgcl (GeneID 33978) | DRSC02051
0.182 | 0.49 | – | HP1D3csd (GeneID 32906) | DRSC19548
0.818 | 2.96 | – | Prps (GeneID 39132) | DRSC08994
-0.219 | -3.91 | – | Prps (GeneID 39132) | DRSC10707
-0.699 | -1.04 | – | Prps (GeneID 39132) | DRSC10708
-0.797 | -2.95 | 0.102 | CG13917 (GeneID 38186) | DRSC08386
-0.525 | 0.0916 | – | Ir40a (GeneID 35449) | DRSC03732
0.0297 | -0.213 | – | Ir40a (GeneID 35449) | DRSC03733
-0.392 | 0.735 | – | CG14797 (GeneID 31123) | DRSC17955
0.342 | 0.0353 | – | Ugt37E1 (GeneID 53512) | DRSC02248
-2.77 | -2.76 | -0.454 | CG2157 (GeneID 32018) | DRSC19836
3.82 | 1.93 | – | Ercc1 (GeneID 36654) | DRSC07424
-0.267 | 3.55 | – | Cyp6a13 (GeneID 35837) | DRSC07375
-1.02 | -0.704 | – | tra2 (GeneID 36619) | DRSC07708
0.126 | 1.97 | – | Idgf3 (GeneID 34981) | DRSC03351
2.84 | -1.02 | – | mRpL13 (GeneID 35145) | DRSC02076
-3.44 | -3.06 | – | CG1113 (GeneID 40629) | DRSC12163
-0.578 | -1.98 | – | CG15550 (GeneID 43666) | DRSC15088
-0.00805 | -0.0135 | – | sv (GeneID 43825) | DRSC17221
0.697 | -0.742 | – | pita (GeneID 37730) | DRSC04006
-0.0232 | 0.06 | – | pita (GeneID 37730) | DRSC04435
-0.638 | 3.5 | – | CG15128 (GeneID 37263) | DRSC06550
-1.18 | 0.795 | – | CG31125 (GeneID 318599) | DRSC13684
-0.0142 | -0.471 | – | dpr4 (GeneID 3346160) | DRSC14531
0.877 | -0.684 | – | dpr4 (GeneID 3346160) | DRSC14929
-1.12 | 0.301 | – | RagC-D (GeneID 35793) | DRSC07239
0.0558 | – | – | CG31301 (GeneID 41865) | DRSC22164
0.11 | -0.24 | – | Tsp42Eb + CG30160 | DRSC04961
-0.166 | -0.456 | – | Tsp42Eb + CG30160 | DRSC06791
-0.196 | 0.00634 | 1.11 | kipf (GeneID 40937) | DRSC15446
-1.17 | -1.22 | – | kipf (GeneID 40937) | DRSC22871
0.0359 | 0.99 | – | CG32847 (GeneID 318245) | DRSC22901
-0.00497 | 4.19 | – | CG32111 (retired record) (GeneID 317859) | DRSC09203
0.509 | 0.943 | – | CG12307 (GeneID 34584) | DRSC02159
-2.19 | -3.76 | – | Sfp93F (GeneID 8673963) | DRSC13505
-0.167 | -1.07 | – | scpr-A + scpr-C + scpr-B | DRSC15715
0.668 | 0.072 | – | CG11291 (GeneID 37541) | DRSC04097
-1.27 | 0.499 | – | CG16995 (GeneID 33413) | DRSC00480
0.239 | -0.706 | – | BomS5 (GeneID 50207) | DRSC22306
0.228 | -1.51 | – | CG17931 + CG42446 | DRSC15293
-0.127 | -0.174 | – | Gnptab (GeneID 35943) | DRSC07057
-0.684 | -2.49 | – | mthl9 (GeneID 38056) | DRSC08506
-0.188 | -0.401 | – | nol (GeneID 64867) | DRSC21425
-4.41 | -1.56 | – | AP-2sigma (GeneID 42525) | DRSC15957
2.02 | 0.944 | – | Cap-G (GeneID 36440) | DRSC06652
0.446 | -1.73 | – | Cap-G (GeneID 36440) | DRSC06653
0.728 | -0.709 | – | Cap-G (GeneID 36440) | DRSC21805
1.37 | 0.678 | -0.142 | CG7611 (GeneID 40386) | DRSC11840
1.34 | 2.38 | – | Arf4 (GeneID 43823) | DRSC17195
-1.29 | -0.967 | – | Nha2 (GeneID 42710) | DRSC14689
0.00686 | -0.00824 | – | Nha2 (GeneID 42710) | DRSC15619
0.142 | -0.512 | – | Nha2 (GeneID 42710) | DRSC15623
6.15 | 8.75 | – | slmo + CG34179 | DRSC03143
-0.0634 | 0.874 | – | CG14000 + bchs | DRSC02333
0.0139 | -0.547 | – | CG11686 (GeneID 50024) | DRSC14350
-0.251 | -1.05 | – | Fbxo42 (GeneID 37532) | DRSC04529
0.96 | -0.0113 | – | mAChR-A (GeneID 37892) | DRSC04702
-0.158 | 0.315 | – | SK (GeneID 31456) | DRSC17387
-0.263 | -0.789 | – | SK (GeneID 31456) | DRSC17751
-1.36 | 6.85 | – | SK (GeneID 31456) | DRSC17887
-0.553 | -1.14 | – | SK (GeneID 31456) | DRSC17888
-0.469 | 0.61 | -0.0125 | SK (GeneID 31456) | DRSC18353
2.95 | 2.65 | – | SK (GeneID 31456) | DRSC21840
-0.619 | 1.1 | – | fzo (GeneID 42745) | DRSC16954
-0.0183 | 13.1 | – | ATPsynC (GeneID 43693) | DRSC15236
0.542 | 1.94 | – | ABCB7 (GeneID 38193) | DRSC08603

Laid out differently: entries from further up.
CG1113 (GeneID 40629) [DRSC12163] | droplet/nuclear area B-score, replicate 1 = -3.44; droplet/nuclear area B-score, replicate 2 = -3.06
CG15550 (GeneID 43666) [DRSC15088] | droplet/nuclear area B-score, replicate 1 = -0.578; droplet/nuclear area B-score, replicate 2 = -1.98
sv (GeneID 43825) [DRSC17221] | droplet/nuclear area B-score, replicate 1 = -0.00805; droplet/nuclear area B-score, replicate 2 = -0.0135
pita (GeneID 37730) [DRSC04006] | droplet/nuclear area B-score, replicate 1 = 0.697; droplet/nuclear area B-score, replicate 2 = -0.742
pita (GeneID 37730) [DRSC04435] | droplet/nuclear area B-score, replicate 1 = -0.0232; droplet/nuclear area B-score, replicate 2 = 0.06
CG15128 (GeneID 37263) [DRSC06550] | droplet/nuclear area B-score, replicate 1 = -0.638; droplet/nuclear area B-score, replicate 2 = 3.5
CG31125 (GeneID 318599) [DRSC13684] | droplet/nuclear area B-score, replicate 1 = -1.18; droplet/nuclear area B-score, replicate 2 = 0.795
